These are yes or no findings as the source states them, for the method shown. Some entries that bind do so weakly or less than the wild type.
Legend:
[1] = biological target: hGREM1 (Peprotech) (human) (UniProt O60565); assay: blocking ELISA: coated BMP4 0.25ug/ml, antibody pre-incubated with biotin Gremlin (Peprotech) 0.1ug/ml, neutravidin-HRP; blocked ligand BMP4
[2] = biological target: hGREM1 (Peprotech) (human) (UniProt O60565); assay: blocking ELISA: coated BMP2 0.25ug/ml, antibody pre-incubated with biotin Gremlin (Peprotech) 0.1ug/ml, neutravidin-HRP; blocked ligand BMP2

Amino acid sequences for entries named in this document (tags omitted). A change or cut given only in a name is not applied to a line headed by its entry.
UniProt O60565: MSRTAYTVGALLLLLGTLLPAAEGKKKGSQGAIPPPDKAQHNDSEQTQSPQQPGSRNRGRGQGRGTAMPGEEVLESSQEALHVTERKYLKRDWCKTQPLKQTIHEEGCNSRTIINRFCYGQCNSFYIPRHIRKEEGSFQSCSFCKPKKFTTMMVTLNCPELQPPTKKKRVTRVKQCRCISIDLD

- binding [1]: binds
- binding [2]: binds
B1: 69H5 (antibody, V domains shown)
VH: EVQLQQSGAELVRPGASVKLSCTASGFNIKDDYMHWVKRRPEQGLEWIGWIDPENGDTEYASKFQGKATITADTSSNTAYLQLSSLTSEDTAVYYCTTWATVPDFDYWGQGTTLTVSS
VL: DIVMTQSPSSLAMSVGQKVTMSCKSSQSLLNRSNQKNYLAWYQQKPGQSPKLLVHFTSTRESGVPDRFIGSGSGTDFTLTISNLQAEDLADYFCQQHYSTPFTFGSGTKLEIK

Source: patent US20240294622A1
